# In the supplement of paper PMC10849652:
# Chains of the proteins cited; added tags and fusions are not shown. Lines headed by an entry give the natural chain unless they say otherwise; changes in a name come on top.
# UniProt O43909: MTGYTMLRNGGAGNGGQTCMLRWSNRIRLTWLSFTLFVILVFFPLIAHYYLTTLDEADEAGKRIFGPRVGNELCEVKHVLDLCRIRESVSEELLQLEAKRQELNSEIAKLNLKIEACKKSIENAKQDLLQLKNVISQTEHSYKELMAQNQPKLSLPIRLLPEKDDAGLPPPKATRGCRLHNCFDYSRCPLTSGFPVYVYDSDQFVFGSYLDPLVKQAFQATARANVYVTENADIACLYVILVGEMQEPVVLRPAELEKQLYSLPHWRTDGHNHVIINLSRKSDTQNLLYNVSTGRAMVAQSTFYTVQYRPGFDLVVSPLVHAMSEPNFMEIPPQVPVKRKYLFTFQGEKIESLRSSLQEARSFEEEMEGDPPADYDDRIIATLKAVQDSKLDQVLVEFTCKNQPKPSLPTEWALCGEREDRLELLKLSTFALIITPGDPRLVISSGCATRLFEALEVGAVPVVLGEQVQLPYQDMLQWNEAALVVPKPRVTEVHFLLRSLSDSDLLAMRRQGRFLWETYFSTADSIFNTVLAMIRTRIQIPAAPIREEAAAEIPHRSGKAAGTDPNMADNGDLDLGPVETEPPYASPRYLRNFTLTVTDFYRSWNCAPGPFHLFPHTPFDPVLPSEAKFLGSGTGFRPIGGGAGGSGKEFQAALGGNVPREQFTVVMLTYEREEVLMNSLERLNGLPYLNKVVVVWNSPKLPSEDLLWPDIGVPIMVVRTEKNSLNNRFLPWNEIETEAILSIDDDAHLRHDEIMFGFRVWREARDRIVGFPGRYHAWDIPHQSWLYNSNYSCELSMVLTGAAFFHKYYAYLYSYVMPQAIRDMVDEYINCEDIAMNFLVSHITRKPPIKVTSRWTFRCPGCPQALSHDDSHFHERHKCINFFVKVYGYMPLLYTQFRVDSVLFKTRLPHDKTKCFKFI
# UniProt O43491, whole entry, looked up: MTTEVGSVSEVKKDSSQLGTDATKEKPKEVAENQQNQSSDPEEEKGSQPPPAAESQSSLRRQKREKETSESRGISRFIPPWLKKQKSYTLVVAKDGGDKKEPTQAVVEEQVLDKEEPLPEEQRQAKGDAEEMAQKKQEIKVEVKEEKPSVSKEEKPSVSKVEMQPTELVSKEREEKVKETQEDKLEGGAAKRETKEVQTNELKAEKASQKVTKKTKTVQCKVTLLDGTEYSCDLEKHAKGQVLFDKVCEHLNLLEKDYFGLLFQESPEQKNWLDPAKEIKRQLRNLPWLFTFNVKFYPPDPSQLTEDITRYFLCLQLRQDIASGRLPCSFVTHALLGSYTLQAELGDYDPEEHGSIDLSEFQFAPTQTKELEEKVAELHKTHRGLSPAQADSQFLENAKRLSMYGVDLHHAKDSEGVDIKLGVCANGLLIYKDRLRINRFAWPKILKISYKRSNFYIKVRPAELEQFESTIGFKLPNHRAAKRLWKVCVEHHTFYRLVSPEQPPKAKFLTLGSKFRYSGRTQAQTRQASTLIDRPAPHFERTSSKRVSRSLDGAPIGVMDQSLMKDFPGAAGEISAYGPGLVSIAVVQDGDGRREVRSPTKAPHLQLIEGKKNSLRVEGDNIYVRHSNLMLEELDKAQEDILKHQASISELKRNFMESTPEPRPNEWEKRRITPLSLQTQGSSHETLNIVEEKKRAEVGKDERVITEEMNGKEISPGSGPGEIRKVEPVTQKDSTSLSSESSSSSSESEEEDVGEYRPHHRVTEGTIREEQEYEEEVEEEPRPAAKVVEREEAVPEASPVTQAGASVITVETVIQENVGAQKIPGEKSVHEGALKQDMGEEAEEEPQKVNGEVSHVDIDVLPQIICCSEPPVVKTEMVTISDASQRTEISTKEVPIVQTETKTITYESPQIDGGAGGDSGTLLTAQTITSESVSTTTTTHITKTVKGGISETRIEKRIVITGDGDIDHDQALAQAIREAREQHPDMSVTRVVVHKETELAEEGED
# UniProt O75616: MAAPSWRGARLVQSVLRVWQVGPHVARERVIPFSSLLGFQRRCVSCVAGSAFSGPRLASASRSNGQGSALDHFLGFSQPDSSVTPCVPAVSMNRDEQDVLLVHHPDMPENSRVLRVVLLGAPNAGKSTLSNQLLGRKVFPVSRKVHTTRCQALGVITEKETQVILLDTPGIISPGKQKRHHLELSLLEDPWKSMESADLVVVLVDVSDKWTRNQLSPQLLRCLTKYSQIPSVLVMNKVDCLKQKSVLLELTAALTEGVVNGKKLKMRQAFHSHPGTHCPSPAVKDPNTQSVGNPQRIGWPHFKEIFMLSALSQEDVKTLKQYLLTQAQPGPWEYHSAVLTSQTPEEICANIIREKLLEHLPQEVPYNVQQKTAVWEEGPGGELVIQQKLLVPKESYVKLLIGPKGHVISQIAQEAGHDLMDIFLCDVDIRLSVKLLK
# UniProt Q9Y6I3: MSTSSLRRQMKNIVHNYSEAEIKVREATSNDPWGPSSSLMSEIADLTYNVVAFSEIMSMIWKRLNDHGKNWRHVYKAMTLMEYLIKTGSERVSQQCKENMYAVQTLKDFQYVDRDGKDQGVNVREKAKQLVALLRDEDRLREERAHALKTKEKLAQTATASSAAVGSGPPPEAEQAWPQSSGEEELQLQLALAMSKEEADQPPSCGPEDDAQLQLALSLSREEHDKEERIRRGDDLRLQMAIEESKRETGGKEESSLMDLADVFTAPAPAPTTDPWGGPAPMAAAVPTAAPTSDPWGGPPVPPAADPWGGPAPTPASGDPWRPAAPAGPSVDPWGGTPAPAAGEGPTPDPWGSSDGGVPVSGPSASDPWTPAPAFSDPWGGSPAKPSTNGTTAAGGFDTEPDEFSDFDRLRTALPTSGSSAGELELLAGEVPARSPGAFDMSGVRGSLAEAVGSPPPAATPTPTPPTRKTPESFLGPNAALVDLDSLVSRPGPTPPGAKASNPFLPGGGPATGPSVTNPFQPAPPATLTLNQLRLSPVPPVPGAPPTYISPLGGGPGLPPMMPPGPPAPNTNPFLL
# UniProt Q6NZ36: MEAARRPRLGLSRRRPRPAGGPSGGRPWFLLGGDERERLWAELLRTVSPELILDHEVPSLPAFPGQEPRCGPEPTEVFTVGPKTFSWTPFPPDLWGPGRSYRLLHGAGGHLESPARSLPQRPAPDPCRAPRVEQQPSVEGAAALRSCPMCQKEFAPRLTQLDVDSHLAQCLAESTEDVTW
# UniProt Q6P179: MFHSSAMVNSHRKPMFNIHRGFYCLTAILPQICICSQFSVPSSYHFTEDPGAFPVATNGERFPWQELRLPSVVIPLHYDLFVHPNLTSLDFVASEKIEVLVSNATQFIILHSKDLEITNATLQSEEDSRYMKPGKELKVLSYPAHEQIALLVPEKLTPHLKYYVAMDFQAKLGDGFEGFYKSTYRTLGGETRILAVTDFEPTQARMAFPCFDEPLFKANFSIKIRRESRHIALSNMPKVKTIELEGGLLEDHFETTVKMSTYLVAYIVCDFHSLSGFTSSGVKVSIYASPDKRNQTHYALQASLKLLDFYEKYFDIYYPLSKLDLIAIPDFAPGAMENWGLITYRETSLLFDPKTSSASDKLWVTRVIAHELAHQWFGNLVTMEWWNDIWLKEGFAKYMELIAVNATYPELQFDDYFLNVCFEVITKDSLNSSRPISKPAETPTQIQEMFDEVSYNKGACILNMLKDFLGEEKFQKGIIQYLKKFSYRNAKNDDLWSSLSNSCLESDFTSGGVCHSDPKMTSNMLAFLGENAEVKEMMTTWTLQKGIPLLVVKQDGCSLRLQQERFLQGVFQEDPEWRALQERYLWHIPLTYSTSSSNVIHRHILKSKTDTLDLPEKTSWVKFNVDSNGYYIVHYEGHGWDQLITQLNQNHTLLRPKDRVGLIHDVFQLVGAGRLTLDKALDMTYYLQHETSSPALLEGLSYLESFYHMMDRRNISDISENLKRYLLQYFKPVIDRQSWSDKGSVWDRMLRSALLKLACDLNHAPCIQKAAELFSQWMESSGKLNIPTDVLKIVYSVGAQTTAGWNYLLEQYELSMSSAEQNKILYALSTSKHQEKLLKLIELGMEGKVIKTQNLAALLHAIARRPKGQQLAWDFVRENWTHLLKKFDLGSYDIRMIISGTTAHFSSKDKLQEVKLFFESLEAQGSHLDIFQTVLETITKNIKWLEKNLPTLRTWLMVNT
# UniProt Q9P2D6: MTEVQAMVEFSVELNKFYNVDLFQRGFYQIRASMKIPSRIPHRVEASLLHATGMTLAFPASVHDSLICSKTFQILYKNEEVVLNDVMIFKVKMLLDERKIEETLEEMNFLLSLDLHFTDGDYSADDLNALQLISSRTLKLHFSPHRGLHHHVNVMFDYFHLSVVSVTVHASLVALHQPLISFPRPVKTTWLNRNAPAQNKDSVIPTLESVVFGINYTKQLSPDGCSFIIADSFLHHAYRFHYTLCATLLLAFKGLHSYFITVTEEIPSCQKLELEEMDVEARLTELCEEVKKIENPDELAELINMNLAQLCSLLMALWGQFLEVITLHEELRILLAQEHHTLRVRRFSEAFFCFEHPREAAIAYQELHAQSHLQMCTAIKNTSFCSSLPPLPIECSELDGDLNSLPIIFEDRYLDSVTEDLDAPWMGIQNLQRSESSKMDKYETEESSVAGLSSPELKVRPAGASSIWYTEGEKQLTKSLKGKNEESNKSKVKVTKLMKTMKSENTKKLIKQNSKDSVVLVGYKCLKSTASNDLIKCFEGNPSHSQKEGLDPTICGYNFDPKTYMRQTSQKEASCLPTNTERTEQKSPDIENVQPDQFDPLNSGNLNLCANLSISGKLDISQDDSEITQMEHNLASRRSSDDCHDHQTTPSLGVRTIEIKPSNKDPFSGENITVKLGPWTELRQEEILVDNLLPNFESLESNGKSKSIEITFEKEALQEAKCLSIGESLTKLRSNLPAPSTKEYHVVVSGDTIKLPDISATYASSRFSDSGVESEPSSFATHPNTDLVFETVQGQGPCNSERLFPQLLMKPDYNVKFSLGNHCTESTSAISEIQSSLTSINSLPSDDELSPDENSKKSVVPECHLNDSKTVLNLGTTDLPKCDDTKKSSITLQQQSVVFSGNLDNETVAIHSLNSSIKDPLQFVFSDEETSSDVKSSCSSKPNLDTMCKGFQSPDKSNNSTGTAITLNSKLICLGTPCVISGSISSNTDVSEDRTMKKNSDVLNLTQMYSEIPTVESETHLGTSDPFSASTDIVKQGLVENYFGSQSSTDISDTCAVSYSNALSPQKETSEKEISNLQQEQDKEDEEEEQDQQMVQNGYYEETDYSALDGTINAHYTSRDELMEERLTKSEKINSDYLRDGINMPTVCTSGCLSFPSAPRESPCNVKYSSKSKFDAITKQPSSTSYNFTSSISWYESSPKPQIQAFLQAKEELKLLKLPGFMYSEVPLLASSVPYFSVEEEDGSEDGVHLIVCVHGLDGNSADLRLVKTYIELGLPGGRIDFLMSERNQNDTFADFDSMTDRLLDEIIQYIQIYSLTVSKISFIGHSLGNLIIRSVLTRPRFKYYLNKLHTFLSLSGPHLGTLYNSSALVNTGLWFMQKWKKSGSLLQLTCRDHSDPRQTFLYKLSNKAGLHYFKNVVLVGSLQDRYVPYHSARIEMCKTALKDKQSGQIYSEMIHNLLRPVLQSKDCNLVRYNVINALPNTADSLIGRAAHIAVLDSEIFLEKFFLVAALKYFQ
# UniProt Q9BYI3: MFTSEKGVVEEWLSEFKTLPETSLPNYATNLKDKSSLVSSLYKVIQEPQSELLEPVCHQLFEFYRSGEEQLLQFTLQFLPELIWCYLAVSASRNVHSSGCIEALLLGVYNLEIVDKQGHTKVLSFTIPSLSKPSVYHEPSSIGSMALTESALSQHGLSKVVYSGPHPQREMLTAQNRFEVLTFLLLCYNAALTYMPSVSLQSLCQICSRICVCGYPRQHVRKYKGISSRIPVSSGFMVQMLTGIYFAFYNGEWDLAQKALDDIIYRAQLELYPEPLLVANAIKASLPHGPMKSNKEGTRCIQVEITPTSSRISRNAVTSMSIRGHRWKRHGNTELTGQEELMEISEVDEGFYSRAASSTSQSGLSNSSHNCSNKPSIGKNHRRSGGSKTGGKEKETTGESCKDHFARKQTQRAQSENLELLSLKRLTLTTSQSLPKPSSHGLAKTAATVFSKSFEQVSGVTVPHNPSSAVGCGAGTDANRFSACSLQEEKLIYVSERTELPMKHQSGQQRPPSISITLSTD
# UniProt P25116: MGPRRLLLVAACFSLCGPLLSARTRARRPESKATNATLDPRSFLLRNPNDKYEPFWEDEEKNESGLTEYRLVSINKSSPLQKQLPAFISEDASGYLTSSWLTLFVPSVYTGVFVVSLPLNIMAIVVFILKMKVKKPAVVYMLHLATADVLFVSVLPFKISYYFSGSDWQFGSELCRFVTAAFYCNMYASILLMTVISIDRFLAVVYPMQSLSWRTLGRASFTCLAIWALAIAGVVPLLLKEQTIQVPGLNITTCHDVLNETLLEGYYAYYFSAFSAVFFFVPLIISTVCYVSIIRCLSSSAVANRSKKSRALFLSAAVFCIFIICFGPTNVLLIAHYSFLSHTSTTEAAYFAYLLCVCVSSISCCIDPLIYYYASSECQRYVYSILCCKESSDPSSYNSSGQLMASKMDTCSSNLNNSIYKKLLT
# Some of the results follow. Residues, ends and D or L forms follow the SMILES beside them. *: point of attachment. Cbz = O=C(OCc1ccccc1)*
# Tests used:
# Assay in all cases: log2 fold change, soluble protein after heating vs DMSO (PISA); higher = thermal stabilisation; K562 cells, 10 uM, 30 min; active = over 0.2 and 3.5 SD of the protein, either way, in both replicates (recomputed)
# IRAK-1-4 Inhibitor I = compound: C1COCCN1CCN2C3=CC=CC=C3N=C2NC(=O)C4=CC(=CC=C4)[N+](=O)[O-] [IRAK-1-4 Inhibitor I]
# Summary of the method: (§1)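 K562 cells at 2×10^6 cells/mL were exposed to 10 μM compound for 30 min, then aliquots were heated for 3 min across 48°C-58°C, pooled, and extracted in PBS containing 0.5% NP-40 at 4°C. The supernatant after 21,000xg for 90 min was taken as soluble protein and measured by TMTpro 16plex LC-MS/MS with channel sums equalised. Thermal stability is reported relative to control samples, with values from duplicates. Fold changes are given on a log2 scale.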
# ibrutinib = compound: C=CC(=O)N1CCC[C@@H](n2nc(-c3ccc(Oc4ccccc4)cc3)c3c(N)ncnc32)C1 [ibrutinib]
# Summary of the method: as §1
# [1] = compound: CC(=O)c1cnc2ccc(-c3cc(Cl)c(O)c(Cl)c3)nc2c1N[C@H]1CC[C@H](CN(C)C)CC1
# Summary of the method: as §1
# ralimetinib = compound: CC(C)(C)Cn1c(N)nc2ccc(-c3[nH]c(C(C)(C)C)nc3-c3ccc(F)cc3)nc21 [ralimetinib]
# Summary of the method: as §1
# [2] = compound: CC(C)(O)CC(=O)NCCn1ccc2ncnc(Nc3ccc(Oc4cccc(C(F)(F)F)c4)c(Cl)c3)c21
# Summary of the method: as §1
# [3] = compound: CC(C)C1=C2N=C(C=C(N2N=C1)NCC3=CC=CC=C3)NCCCCCCN
# Summary of the method: as §1
# [4] = compound: CC(C)C[C@@H](C=O)NC(=O)[C@H](CC(C)C)NC(=O)[C@H](CC(C)C)NC(=O)OCc1ccccc1
# Summary of the method: as §1
# pinometostat = compound: CC(C)N(C[C@H]1O[C@@H](n2cnc3c(N)ncnc32)[C@H](O)[C@@H]1O)[C@H]1C[C@@H](CCc2nc3cc(C(C)(C)C)ccc3[nH]2)C1 [pinometostat]
# Summary of the method: as §1
# [5] = compound: CC1=C(C2=C(C=C1)C(=O)C3=CC=CC=C3N2CCCN)C
# Summary of the method: as §1
# [6] = compound: CC1=C(C(CC(=O)N1)C2=CC=C(C=C2)C(F)(F)F)C(=O)NC3=C(C=C4C(=C3)C=NN4)F
# Summary of the method: as §1
target,measurement,setting,value
EXOC5 (UniProt O00471),log2 fold change,IRAK-1-4 Inhibitor I,inactive: -0.062
same,log2 fold change,ibrutinib,inactive: -0.002
same,log2 fold change,[1],inactive: -0.01
same,log2 fold change,ralimetinib,inactive: 0.015
same,log2 fold change,[2],inactive: -0.03
same,log2 fold change,[3],active: -0.344
same,log2 fold change,[4],inactive: 0.014
same,log2 fold change,pinometostat,inactive: 0.078
same,log2 fold change,[5],inactive: -0.061
ERCC8 (UniProt Q13216),log2 fold change,IRAK-1-4 Inhibitor I,inactive: 0.034
same,log2 fold change,ibrutinib,inactive: 0.047
same,log2 fold change,[1],inactive: -0.084
same,log2 fold change,ralimetinib,inactive: -0.02
same,log2 fold change,[3],inactive: 0.067
same,log2 fold change,[4],inactive: 0.007
same,log2 fold change,pinometostat,inactive: -0.017
same,log2 fold change,[6],inactive: 0.038
same,log2 fold change,[5],inactive: 0.029
EXTL3 (UniProt O43909),log2 fold change,IRAK-1-4 Inhibitor I,inactive: -0.034
same,log2 fold change,ibrutinib,inactive: -0.26
same,log2 fold change,[1],inactive: -0.086
same,log2 fold change,ralimetinib,inactive: 0.037
same,log2 fold change,[2],inactive: 0.052
same,log2 fold change,[4],inactive: 0.008
same,log2 fold change,pinometostat,inactive: -0.07
same,log2 fold change,[6],inactive: -0.066
same,log2 fold change,[5],inactive: 0.181
ERCC6L (UniProt Q2NKX8),log2 fold change,IRAK-1-4 Inhibitor I,inactive: -0.127
same,log2 fold change,ibrutinib,inactive: 0.065
same,log2 fold change,[1],inactive: 0.017
same,log2 fold change,ralimetinib,inactive: 0.106
same,log2 fold change,[2],inactive: 0
same,log2 fold change,[4],inactive: 0.066
same,log2 fold change,pinometostat,inactive: 0.368
same,log2 fold change,[6],inactive: 0.031
same,log2 fold change,[5],inactive: 0.02
EWSR1 (UniProt H7BY36),log2 fold change,ibrutinib,inactive: 0.345
same,log2 fold change,[1],inactive: -0.021
same,log2 fold change,[2],inactive: 0.031
same,log2 fold change,[3],inactive: -0.07
same,log2 fold change,[6],inactive: 0.586
EPB41L2 isoform 4 (UniProt O43491),log2 fold change,IRAK-1-4 Inhibitor I,inactive: -0.354
same,log2 fold change,ibrutinib,inactive: 0.063
same,log2 fold change,[2],inactive: -0.06
same,log2 fold change,pinometostat,inactive: -0.035
same,log2 fold change,[6],inactive: -0.201
ESYT2 (UniProt H7BXI1),log2 fold change,ibrutinib,inactive: 0.01
same,log2 fold change,[1],inactive: -0.031
same,log2 fold change,[2],inactive: -0.052
same,log2 fold change,[3],inactive: -0.226
same,log2 fold change,[6],inactive: -0.036
FAM160A2 isoform 2 (UniProt Q8N612),log2 fold change,IRAK-1-4 Inhibitor I,inactive: 0.029
same,log2 fold change,ibrutinib,inactive: -0.003
same,log2 fold change,ralimetinib,inactive: -0.029
same,log2 fold change,[2],inactive: -0.326
same,log2 fold change,[4],inactive: 0.013
same,log2 fold change,pinometostat,inactive: 0.004
same,log2 fold change,[5],inactive: 0.102
ERAL1 (UniProt O75616),log2 fold change,IRAK-1-4 Inhibitor I,inactive: -0.059
same,log2 fold change,ibrutinib,inactive: -0.041
same,log2 fold change,[1],inactive: -0.245
same,log2 fold change,[2],inactive: 0.004
same,log2 fold change,[3],inactive: -0.138
same,log2 fold change,pinometostat,inactive: -0.02
same,log2 fold change,[6],inactive: -0.135
F10 (UniProt P00742),log2 fold change,IRAK-1-4 Inhibitor I,inactive: 0.037
same,log2 fold change,ibrutinib,inactive: 0.082
same,log2 fold change,ralimetinib,inactive: -0.064
same,log2 fold change,[2],inactive: 0.079
same,log2 fold change,[3],inactive: 0.095
same,log2 fold change,[4],inactive: 0.036
same,log2 fold change,pinometostat,inactive: -0.121
same,log2 fold change,[6],inactive: 0
same,log2 fold change,[5],inactive: -0.118
EPN1 isoform 3 (UniProt Q9Y6I3),log2 fold change,ibrutinib,inactive: 0.092
FAAP20 isoform 2 (UniProt Q6NZ36),log2 fold change,[2],inactive: -0.021
EPC1 (UniProt Q9H2F5),log2 fold change,ralimetinib,inactive: -0.008
same,log2 fold change,[4],inactive: -0.138
F13B (UniProt P05160),log2 fold change,[5],inactive: -0.255
ERAP2 (UniProt Q6P179),log2 fold change,[2],inactive: -0.015
same,log2 fold change,[3],inactive: -0.044
same,log2 fold change,[6],inactive: -0.095
FAM172A (UniProt Q8WUF8),log2 fold change,ibrutinib,inactive: -0.056
same,log2 fold change,[2],inactive: 0.008
same,log2 fold change,[6],inactive: -0.059
FAM135A (UniProt Q9P2D6),log2 fold change,[2],inactive: 0.009
same,log2 fold change,[3],inactive: 0.051
ERCC1 isoform 3 (UniProt P07992),log2 fold change,ralimetinib,inactive: 0.071
same,log2 fold change,[4],inactive: 0.011
FAM171A2 (UniProt A8MVW0),log2 fold change,ralimetinib,inactive: 0.193
same,log2 fold change,[3],inactive: 0.034
same,log2 fold change,[4],inactive: -0.158
FAM126A (UniProt Q9BYI3),log2 fold change,[1],inactive: -0.076
same,log2 fold change,ralimetinib,inactive: -0.029
same,log2 fold change,[2],inactive: -0.014
same,log2 fold change,[3],inactive: -0.108
same,log2 fold change,[4],inactive: 0.057
ERI3 (UniProt H0Y4B0),log2 fold change,ibrutinib,inactive: 0.088
same,log2 fold change,[2],inactive: 0.26
same,log2 fold change,[3],inactive: 0.234
FAM110A (UniProt Q9BQ89),log2 fold change,[2],inactive: -0.006
FADS2 (UniProt O95864),log2 fold change,[3],inactive: 0.061
EPHX2 (UniProt E5RI53),log2 fold change,ibrutinib,inactive: 0.085
same,log2 fold change,[2],inactive: 0.071
EPS8L2 isoform 3 (UniProt Q9H6S3),log2 fold change,ralimetinib,inactive: -0.008
same,log2 fold change,[2],inactive: 0.006
same,log2 fold change,[3],inactive: -0.052
same,log2 fold change,[4],inactive: -0.006
same,log2 fold change,[5],inactive: 0.025
FAM102B (UniProt Q5T8I3),log2 fold change,ralimetinib,inactive: -0.037
same,log2 fold change,[2],inactive: 0.295
same,log2 fold change,[4],inactive: 0.031
F2R (UniProt P25116),log2 fold change,[1],inactive: 0.202
same,log2 fold change,[5],inactive: -0.019
ERF (UniProt P50548),log2 fold change,[2],inactive: 0.093
same,log2 fold change,[3],inactive: 0.186
same,log2 fold change,[5],inactive: 0.094
EVI5 isoform 2 (UniProt O60447),log2 fold change,[1],inactive: -0.051
same,log2 fold change,ralimetinib,inactive: 0.305
same,log2 fold change,[3],inactive: -0.481
same,log2 fold change,[4],inactive: 0.204
same,log2 fold change,[5],inactive: -0.534
EPB41L5 (UniProt Q9HCM4),log2 fold change,[2],inactive: -0.003
same,log2 fold change,[3],inactive: -0.214
FAM178B (UniProt Q8IXR5),log2 fold change,[3],inactive: -0.027
EYA3 (UniProt Q99504),log2 fold change,[1],inactive: 0.169
same,log2 fold change,[5],inactive: 0.018
F13A1 (UniProt P00488),log2 fold change,ibrutinib,inactive: 0.242
same,log2 fold change,[6],inactive: -0.027
same,log2 fold change,[5],inactive: -0.082
F2RL3 (UniProt Q96RI0),log2 fold change,[1],inactive: 0.02
same,log2 fold change,ralimetinib,inactive: -0.084
same,log2 fold change,[3],inactive: 0.081
same,log2 fold change,[4],inactive: 0.021
same,log2 fold change,[5],inactive: 0.1
FAM120B (UniProt Q96EK7),log2 fold change,[1],inactive: 0.043
same,log2 fold change,[3],inactive: 0.055
FAM126B (UniProt Q8IXS8),log2 fold change,[1],inactive: 0.037
same,log2 fold change,[6],inactive: -0.184
FAM204A (UniProt Q9H8W3),log2 fold change,[2],inactive: 0.072
same,log2 fold change,[3],inactive: 0.116
same,log2 fold change,[5],inactive: 0.075
EPS8L1 (UniProt Q8TE68),log2 fold change,ibrutinib,inactive: 0
same,log2 fold change,[2],inactive: 0.02
EPG5 (UniProt Q9HCE0),log2 fold change,ralimetinib,inactive: -0.089
same,log2 fold change,[2],inactive: -0.025
same,log2 fold change,[4],inactive: 0.045
EVPL (UniProt Q92817),log2 fold change,ralimetinib,inactive: 0.266
same,log2 fold change,[4],inactive: -0.079
same,log2 fold change,[6],inactive: -0.052
EPHB4 (UniProt P54760),log2 fold change,ralimetinib,inactive: 0.131
same,log2 fold change,[4],inactive: 0.241
FABP3 (UniProt P05413),log2 fold change,[1],inactive: -0.041
EXOG (UniProt Q9Y2C4),log2 fold change,[1],inactive: -0.004
same,log2 fold change,ralimetinib,inactive: -0.113
same,log2 fold change,[4],inactive: -0.103
same,log2 fold change,[5],inactive: -0.276
FAM107B isoform 2 (UniProt Q9H098),log2 fold change,[2],inactive: -0.01

# Some of the entries so far, as tab-separated lines.
target	measurement	setting	value
EVI5 isoform 2 (UniProt O60447)	log2 fold change	[4]	inactive: 0.204
same	log2 fold change	[5]	inactive: -0.534
EPB41L5 (UniProt Q9HCM4)	log2 fold change	[2]	inactive: -0.003
same	log2 fold change	[3]	inactive: -0.214
FAM178B (UniProt Q8IXR5)	log2 fold change	[3]	inactive: -0.027
EYA3 (UniProt Q99504)	log2 fold change	[1]	inactive: 0.169
same	log2 fold change	[5]	inactive: 0.018
F13A1 (UniProt P00488)	log2 fold change	ibrutinib	inactive: 0.242
same	log2 fold change	[6]	inactive: -0.027
same	log2 fold change	[5]	inactive: -0.082
F2RL3 (UniProt Q96RI0)	log2 fold change	[1]	inactive: 0.02
same	log2 fold change	ralimetinib	inactive: -0.084
same	log2 fold change	[3]	inactive: 0.081
same	log2 fold change	[4]	inactive: 0.021
same	log2 fold change	[5]	inactive: 0.1
FAM120B (UniProt Q96EK7)	log2 fold change	[1]	inactive: 0.043
same	log2 fold change	[3]	inactive: 0.055
FAM126B (UniProt Q8IXS8)	log2 fold change	[1]	inactive: 0.037
same	log2 fold change	[6]	inactive: -0.184
FAM204A (UniProt Q9H8W3)	log2 fold change	[2]	inactive: 0.072
same	log2 fold change	[3]	inactive: 0.116
same	log2 fold change	[5]	inactive: 0.075
EPS8L1 (UniProt Q8TE68)	log2 fold change	ibrutinib	inactive: 0
same	log2 fold change	[2]	inactive: 0.02
EPG5 (UniProt Q9HCE0)	log2 fold change	ralimetinib	inactive: -0.089
same	log2 fold change	[2]	inactive: -0.025
same	log2 fold change	[4]	inactive: 0.045
EVPL (UniProt Q92817)	log2 fold change	ralimetinib	inactive: 0.266
